{"source": "patent US9005581B2", "about": "“Modified pyrazine derivatives and uses thereof” (MediBeacon, LLC, priority 2008, dated 2015)", "test": "Photophysical properties (fluorescence excitation/emission in PBS)", "format": "physicochemical", "settings": "10 μM solution in PBS", "experimental": "In general, renally excretable compounds are dissolved in PBS buffer to form a 2 mM stock solution. The UV absorbance properties are determined on a 100 μM solution in PBS using a UV-3101PC UV-Vis-NIR Scanning spectrophotometer system from Shimadzu. The fluorescence properties (λex, λem, and CPS at λem) are determined on a 10 μM solution in PBS using a Fluorolog-3 spectrofluorometer system from Jobin Yvon Horiba. The percent plasma protein binding is determined on a 20 μM compound solution in rat plasma incubated at 37° C. for 1 h. The separation of free from bound is made using an Amicon Centrifree YM-30 device (Regenerated Cellulose 30,000 MWCO) and a Z400K Refrigerated Universal Centrifuge from Hermle. The concentration of protein-free is determined via HPLC analysis using a set of external calibration standards and fluorescence detection.", "note": "At least one compound was matched to its structure with a doubt left.", "data": [{"smiles": "COCCOCCOCCOCCOCCOCCOCCOCCCNc1nc(C(=O)N[C@H](CO)C(=O)O)c(NCCCOCCOCCOCCOCCOCCOCCOCCOC)nc1C(=O)N[C@H](CO)C(=O)O", "note": "[Compound 8, 3,6-Bis(2,5,8,11,14,17,20,23-octaoxahexacosan-26-ylamino)-N^2,N^5-bis[(R)-1-carboxy-2-hydroxyethyl]pyrazine-2,5-dicarboxamide]", "values": [{"measurement": "Photophysical Properties Emission λmax", "result": 605, "unit": "nm"}, {"measurement": "Photophysical Properties Excitation λmax", "result": 495, "unit": "nm"}]}, {"smiles": "COCCOCCOCCOCCCNc1nc(C(=O)NCC(O)CO)c(NCCCOCCOCCOCCOC)nc1C(=O)NCC(O)CO", "note": "(stereo not shown) [Compound 13, 3,6-Bis(2,5,8,11-tetraoxatetradecan-14-ylamino)-N^2,N^5-bis(2,3-dihydroxypropyl)pyrazine-2,5-dicarboxamide]", "values": [{"measurement": "Photophysical Properties Emission λmax", "result": 607, "unit": "nm"}, {"measurement": "Photophysical Properties Excitation λmax", "result": 486, "unit": "nm"}]}]}
